# Assay results as given in the supplement of paper PMC9135407.
# “And” between values parts separate entries of the source, which are not always exact repeats. Equal entries are not always repeated. Structures can show the parent of a compound that is named as a salt. ± gives the standard deviation of the averaged measurements. The list shows a part of the results. Plates or batches differ in their baseline, so values are only roughly comparable.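 Primary human stellate myofibroblasts activated in culture; inactivation shown by regained lipid droplets. Readout: fraction of Hoechst-counted cells exceeding a per-plate Bodipy threshold, duplicate wells, each plate with DMSO negative and nortriptyline positive controls. Hits: control-normalized score beyond the plate's top-tenth-percentile nortriptyline wells, or among its three best wells. Final well concentrations unstated.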
# System: primary human hepatic stellate cells (donor 1)
# Assay: percent Bodipy-positive cells; higher = more lipid droplet accumulation
# Conditions: 48 h
# [1] = library stock concentration: 10 mM
# [2] = library stock concentration: 80 uM
# [3] = library stock concentration: 400 uM
# [4] = library stock concentration: 2 mM
# [5] = library stock concentration: 3.33 mM
# [6] = library stock concentration: 1 mM
smiles,measurement,setting,value
Nc1nc(F)nc2c1ncn2[C@@H]1O[C@H](CO)[C@@H](O)[C@@H]1O,percent Bodipy-positive cells,[1],91.73 ± 0.37%
CC(=O)c1cnc2ccc(-c3cc(Cl)c(O)c(Cl)c3)nc2c1N[C@H]1CC[C@H](CN(C)C)CC1,percent Bodipy-positive cells,[2],50.7 ± 8.8%
same,percent Bodipy-positive cells,[3],68.3 ± 6%
same,percent Bodipy-positive cells,[4],71.6 ± 2.5%
CC[C@H]1OC(=O)[C@H](C)[C@@H](O[C@H]2C[C@@](C)(OC)[C@@H](O)[C@H](C)O2)[C@H](C)[C@@H](O[C@@H]2O[C@H](C)C[C@H](N(C)C)[C@H]2O)[C@](C)(O)C[C@@H](C)/C(=N\OCOCCOC)[C@H](C)[C@@H](O)[C@]1(C)O [Roxithromycin],percent Bodipy-positive cells,,9.84 ± 6.2%
same,percent Bodipy-positive cells,[5],6.62 ± 1.9%
same,percent Bodipy-positive cells,[1],27.6% and 36.8%
"N#CC(Cc1ccc(O)cc1)c1ccc(O)cc1 (stereo unspecified) [2,3-bis (4-Hydroxyphenyl) Propionitrile]",percent Bodipy-positive cells,[6],7.11 ± 1%
CC(C)n1cnc2c(NCCc3ccc(O)cc3)nc(-c3csc4ccccc34)nc21 [StemRegenin 1 (SR1)],percent Bodipy-positive cells,[1],84.6 ± 5%
CC[C@@H]([C@H](C)O)n1ncn(-c2ccc(N3CCN(c4ccc(OC[C@@H]5CO[C@@](Cn6cncn6)(c6ccc(F)cc6F)C5)cc4)CC3)cc2)c1=O [Posaconazole],percent Bodipy-positive cells,[1],70.3 ± 6.2%
CCCCC/C=C\CCCCCCCCCCCCC(=O)O [14(Z)-Eicosenoic Acid],percent Bodipy-positive cells,[6],14.4 ± 7.2%
COc1c2ccoc2nc2c(OC)c(OCC(O)C(C)(C)O)ccc12 (stereo unspecified) [Evoxine],percent Bodipy-positive cells,,8.18 ± 0.94%
CC(C)NCC(O)COc1ccc(COCCOC(C)C)cc1 (stereo unspecified),percent Bodipy-positive cells,[1],15.014 ± 0.00071%
CC(C)NCC(O)COc1ccc(COCCOC(C)C)cc1 (stereo unspecified) [(?)-Bisoprolol hemifumarate],percent Bodipy-positive cells,[1],9.54 ± 1.9%
CC(C)NCC(O)COc1ccc(COCCOC(C)C)cc1 (stereo unspecified) [Bisoprolol fumarate],percent Bodipy-positive cells,,25.4 ± 8.2%
same,percent Bodipy-positive cells,[5],6.04 ± 1.2%
same,percent Bodipy-positive cells,library stock concentration: 4.5 mM,1.75 ± 0.82%
same,percent Bodipy-positive cells,[1],17.4 ± 3.9%
CC(C)NCC(O)COc1ccc(COCCOC(C)C)cc1 (stereo unspecified) [Bisoprolol hemifumarate salt],percent Bodipy-positive cells,[1],59.5 ± 14%
Nc1nc(=S)c2ncn([C@@H]3O[C@H](CO)[C@@H](O)[C@H]3O)c2[nH]1 [Thioguanosine],percent Bodipy-positive cells,,32.8 ± 3%
O=C1CN2Cc3c(ccc(Cl)c3Cl)N=C2N1 [Anagrelide],percent Bodipy-positive cells,library stock concentration: 7.8 mM,18 ± 0.19%
O=C1CN2Cc3c(ccc(Cl)c3Cl)N=C2N1,percent Bodipy-positive cells,[1],9.48 ± 2.1%
O=C1CN2Cc3c(ccc(Cl)c3Cl)N=C2N1 [Anagrelide HCl],percent Bodipy-positive cells,[5],23.9 ± 9.7%
same,percent Bodipy-positive cells,[1],66.5 ± 2.5%
O=C1CN2Cc3c(ccc(Cl)c3Cl)N=C2N1 [Anagrelide hydrochloride],percent Bodipy-positive cells,library stock concentration: 6.8 mM,15.3 ± 4.3%
C#CCCCCCCCCCCCC(O)CC(O)CO (stereo unspecified) [Avocadyne],percent Bodipy-positive cells,[1],43.9 ± 15%
CCCCCC(O)C=CC1C(O)CC(=O)C1CCCCCCC(=O)O (stereo unspecified) [8-iso Prostaglandin E1],percent Bodipy-positive cells,[6],20.7 ± 2.7%
CCCCCC(O)C=CC1C(O)CC(=O)C1CCCCCCC(=O)O [15(R)-Prostaglandin E1],percent Bodipy-positive cells,[6],16.7 ± 1.3%
CCCCC[C@H](O)/C=C/[C@@H]1[C@@H](C/C=C\CCCC(=O)O)[C@@H](O)C[C@@H]1O [11.beta.-Prostaglandin F2.alpha.],percent Bodipy-positive cells,[6],15.4 ± 0.72%
"CCCCC[C@H](O)/C=C/[C@@H]1[C@@H](C/C=C\CCCC(=O)O)[C@@H](O)C[C@@H]1O [9a,11b-Prostaglandin F2]",percent Bodipy-positive cells,[6],15.3 ± 13%
Nc1nc(Cl)nc2c1ncn2[C@@H]1O[C@H](CO)[C@@H](O)[C@@H]1F [Clofarabine],percent Bodipy-positive cells,[5],32.8 ± 18%
same,percent Bodipy-positive cells,library stock concentration: 6.6 mM,12.8 ± 10%
CCCCCCCCCCCCCCCCOCC(CO)OC(C)=O (stereo unspecified) [1-Hexadecyl-2-O-acetyl-glycerol],percent Bodipy-positive cells,[6],5.53 ± 2.9%
CCCCCCCCCCCCCCOc1ccc(C(=O)O)o1,percent Bodipy-positive cells,[6],14.7 ± 3.6%
Cc1cc(C)c(N(Cc2ccccc2)S(=O)(=O)c2ccc(OCCNC(=O)c3cc4ccccc4o3)cc2)c(C(=O)NO)c1,percent Bodipy-positive cells,[1],6.52 ± 1.7%
CC(N)=O [Acetamide],percent Bodipy-positive cells,[1],39.6 ± 0.96%
CCCCCCCCCCCCCCCCCCOC[C@H](COP(=O)([O-])OCC[N+](C)(C)C)OC(C)=O,percent Bodipy-positive cells,[6],14.9% and 10.1%
CN1CC[C@H](c2c(O)cc(O)c3c(=O)cc(-c4ccccc4Cl)oc23)[C@H](O)C1,percent Bodipy-positive cells,[3],65.4 ± 12%
same,percent Bodipy-positive cells,[4],67.1 ± 13%
same,percent Bodipy-positive cells,[1],44.9 ± 8%
CN1CC[C@H](c2c(O)cc(O)c3c(=O)cc(-c4ccccc4Cl)oc23)[C@H](O)C1 [Flavopiridol],percent Bodipy-positive cells,[2],47.6 ± 4.4%
same,percent Bodipy-positive cells,[3],46.7 ± 2.4%
same,percent Bodipy-positive cells,[4],50.9 ± 5.6%
same,percent Bodipy-positive cells,[1],38.4 ± 4.3%
CN1CC[C@H](c2c(O)cc(O)c3c(=O)cc(-c4ccccc4Cl)oc23)[C@H](O)C1 [Flavopiridol HCl],percent Bodipy-positive cells,[5],61.4 ± 11%
same,percent Bodipy-positive cells,[1],61.6 ± 14%
COc1ccc(-c2cc(=O)c3c(O)cc(O)cc3o2)cc1O [Diosmetin],percent Bodipy-positive cells,[5],9.33 ± 0.13%
same,percent Bodipy-positive cells,[1],24.8 ± 0.92%
CC/C=C\C/C=C\C/C=C\CCCCCCCC(=O)NCCO [.alpha.-Linolenoyl Ethanolamide],percent Bodipy-positive cells,[6],7.93 ± 0.39%
CC(=O)OCC(COC(C)=O)OC(C)=O [Triacetin],percent Bodipy-positive cells,library stock concentration: 9.2 mM,12.7 ± 1.2%
same,percent Bodipy-positive cells,[1],32.3 ± 14%
NC[C@H]1O[C@@H](n2cnc3c(N)ncnc32)[C@H](O)[C@@H]1O [5'-Amino-5'-deoxyadenosine p-toluenesulfonate salt],percent Bodipy-positive cells,[1],44.7 ± 12%
C[C@@H](N)[C@H]1CC[C@H](C(=O)Nc2ccncc2)CC1,percent Bodipy-positive cells,[2],15.8 ± 11%
same,percent Bodipy-positive cells,[3],7.63 ± 1.9%
same,percent Bodipy-positive cells,[4],16.1 ± 2.3%
same,percent Bodipy-positive cells,[5],3.78 ± 1.7%
same,percent Bodipy-positive cells,library stock concentration: 20.2 mM,15.5 ± 0.3%
c1cnc2cc3c(cc2n1)[C@@H]1CNC[C@H]3C1 [Varenicline tartrate],percent Bodipy-positive cells,[1],40.9 ± 1.3%
CN1CCC[C@@H]1CCO[C@](C)(c1ccccc1)c1ccc(Cl)cc1 [Clemastine fumarate],percent Bodipy-positive cells,library stock concentration: 5.8 mM,57.1 ± 2.9%
CCc1cc(C(C)=O)c(O)cc1OCCCCCC(C)(C)c1nn[nH]n1,percent Bodipy-positive cells,[6],17.9 ± 5.5%
same,percent Bodipy-positive cells,[1],7.68 ± 2.2%

# An excerpt of the results above, as a working copy:
smiles,measurement,setting,value
CC(=O)OCC(COC(C)=O)OC(C)=O [Triacetin],percent Bodipy-positive cells,library stock concentration: 9.2 mM,12.7 ± 1.2%
same,percent Bodipy-positive cells,[1],32.3 ± 14%
NC[C@H]1O[C@@H](n2cnc3c(N)ncnc32)[C@H](O)[C@@H]1O [5'-Amino-5'-deoxyadenosine p-toluenesulfonate salt],percent Bodipy-positive cells,[1],44.7 ± 12%
